Structures are written as SMILES. This is one part of the list. Single values are uncertain, as repeats are few or missing.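 Imaging used 1,536-well plates; nuclei positive for cleaved PARP by antibody were divided by total DNA-stained nuclei to yield the apoptosis fraction. Doses for screening kept most cells viable, and cell lines differ markedly in resting and induced cleaved-PARP levels.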

This experiment concerns LOXIMVI. Briefly: cleaved PARP positive nuclei fraction relative to DMSO control; melanoma cells; higher = more apoptosis. Particulars: library dose: low library concentration; 72 h.
As for `C=C(c1ccc(C(=O)O)cc1)c1cc2c(cc1C)C(C)(C)CCC2(C)C` [Bexarotene] + Cn1nnc2c(C(N)=O)ncn2c1=O [temozolomide] (first compound 2 µM, partner dose 2 µM), the “cleaved PARP positive nuclei fraction” value came to 89.4%.
As for `Nc1ncn([C@H]2C[C@H](O)[C@@H](CO)O2)c(=O)n1` [decitabine] + C[C@]1(c2nc3c(C(N)=O)cccc3[nH]2)CCCN1 [Veliparib] (first compound 0.1 µM, partner dose 1.4 µM), the figure is 300%; as for `CN1CCN(c2ccc3nc(-c4c(N)c5c(F)cccc5[nH]c4=O)[nH]c3c2)CC1` [Dovitinib] + Nc1nc(F)nc2c1ncn2[C@@H]1O[C@H](CO)[C@@H](O)[C@@H]1O [fludarabine] (first compound 0.1 µM, partner dose 0.2 µM), 76.9%; as for `CO[C@H]1C[C@@H]2CC[C@@H](C)[C@@](O)(O2)C(=O)C(=O)N2CCCC[C@H]2C(=O)O[C@H]([C@H](C)C[C@@H]2CC[C@@H](OCCO)[C@H](OC)C2)CC(=O)[C@H](C)/C=C(\C)[C@@H](O)[C@@H](OC)C(=O)[C@H](C)C[C@H](C)/C=C/C=C/C=C/1C` [everolimus] + Clc1ccc(Nc2nnc(Cc3ccncc3)c3ccccc23)cc1 [vatalanib] (first compound 0.02 µM, partner dose 2 µM), 134%.
As for `CO[C@H]1C[C@@H]2CC[C@@H](C)[C@@](O)(O2)C(=O)C(=O)N2CCCC[C@H]2C(=O)O[C@H]([C@H](C)C[C@@H]2CC[C@@H](OCCO)[C@H](OC)C2)CC(=O)[C@H](C)/C=C(\C)[C@@H](O)[C@@H](OC)C(=O)[C@H](C)C[C@H](C)/C=C/C=C/C=C/1C` [everolimus] + C#Cc1cccc(Nc2ncnc3cc(OCCOC)c(OCCOC)cc23)c1 [erlotinib] (first compound 0.02 µM, partner dose 0.8 µM), the figure is 101%.
Take `CS(=O)(=O)CCNCc1ccc(-c2ccc3ncnc(Nc4ccc(OCc5cccc(F)c5)c(Cl)c4)c3c2)o1` [lapatinib] + OCc1c[nH]c2ccccc12 [Indole-3-carbinol] (first compound 0.8 µM, partner dose 0.8 µM): the “cleaved PARP positive nuclei fraction” value turned out to be 126%.
As to `C[C@@H](Oc1cc(-c2cnn(C3CCNCC3)c2)cnc1N)c1c(Cl)ccc(F)c1Cl` [Crizotinib] + Nc1ccn([C@@H]2O[C@H](CO)[C@@H](O)C2(F)F)c(=O)n1 [gemcitabine] (first compound 0.2 µM, partner dose 0.0004 µM), the “cleaved PARP positive nuclei fraction” value was determined as 99%.
For `O=C(O)[C@@H]1[O][Sb](=[O])([O][Sb]2(=[O])[O][C@H]([C@H](O)CO)[C@H](O)[C@H](C(=O)O)[O]2)[O][C@H]([C@H](O)CO)[C@@H]1O` (stereo not given in full) [stibogluconate] + COc1ccc(Cl)c(Nc2nc3ccccc3nc2NS(=O)(=O)c2cccc(NC(=O)C(C)(C)N)c2)c1 [XL147] (first compound 2 µM, partner dose 0.8 µM), the “cleaved PARP positive nuclei fraction” value turned out to be 116%.
For `Cc1cc(Nc2cc(N3CCN(C)CC3)nc(/C=C/c3ccccc3)n2)n[nH]1` + C#Cc1cccc(Nc2ncnc3cc(OCCOC)c(OCCOC)cc23)c1 [erlotinib] (first compound 0.04 µM, partner dose 0.8 µM), the “cleaved PARP positive nuclei fraction” value is 110%.
As for `Nc1ccn([C@@H]2O[C@H](CO)[C@@H](O)C2(F)F)c(=O)n1` [gemcitabine] + COc1ccc(Cl)c(Nc2nc3ccccc3nc2NS(=O)(=O)c2cccc(NC(=O)C(C)(C)N)c2)c1 [XL147] (first compound 0.0004 µM, partner dose 0.8 µM), the figure is 303%.
Consider `Cc1cc(Nc2cc(N3CCN(C)CC3)nc(/C=C/c3ccccc3)n2)n[nH]1` + CNC(=O)c1cc(Oc2ccc(NC(=O)Nc3ccc(Cl)c(C(F)(F)F)c3)cc2)ccn1 [sorafenib] (first compound 0.04 µM, partner dose 0.4 µM), for which the “cleaved PARP positive nuclei fraction” value was found to be 108%.
As for `O=C(O)c1ccc2c(c1)nc(Nc1cccc(Cl)c1)c1ccncc12` + Nc1nc(F)nc2c1ncn2[C@@H]1O[C@H](CO)[C@@H](O)[C@@H]1O [fludarabine] (first compound 0.4 µM, partner dose 0.2 µM), the figure is 156%.
As for `O=C(O)c1ccc2c(c1)nc(Nc1cccc(Cl)c1)c1ccncc12` + Nc1cccc2c1CN(C1CCC(=O)NC1=O)C2=O [lenalidomide] (first compound 0.4 µM, partner dose 1 µM), the figure is 77.2%; as for `Nc1ncn([C@H]2C[C@H](O)[C@@H](CO)O2)c(=O)n1` [decitabine] + OCc1c[nH]c2ccccc12 [Indole-3-carbinol] (first compound 0.1 µM, partner dose 0.8 µM), 129%.
As for `CC(C)C[C@H](NC(=O)[C@H](Cc1ccccc1)NC(=O)c1cnccn1)B(O)O` [Bortezomib] + Cn1c(Nc2ccc(C(F)(F)F)cc2)nc2cc(Oc3ccnc(-c4ncc(C(F)(F)F)[nH]4)c3)ccc21 [CHIR265] (first compound 0.001 µM, partner dose 0.08 µM), the figure is 101%.
Regarding `Cn1c(=O)n(-c2ccc(C(C)(C)C#N)cc2)c2c3cc(-c4cnc5ccccc5c4)ccc3ncc21` + C[C@]1(c2nc3c(C(N)=O)cccc3[nH]2)CCCN1 [Veliparib] (first compound 0.004 µM, partner dose 1.4 µM), the “cleaved PARP positive nuclei fraction” value is 275%.
As for `CS(=O)(=O)CCNCc1ccc(-c2ccc3ncnc(Nc4ccc(OCc5cccc(F)c5)c(Cl)c4)c3c2)o1` [lapatinib] + COCC[n+]1c2c(n(Cc3cnccn3)c1C)C(=O)c1ccccc1C2=O [YM155] (first compound 0.8 µM, partner dose 0.0004 µM), the “cleaved PARP positive nuclei fraction” value stood at 123%.
For `CCCS(=O)(=O)Nc1ccc(F)c(C(=O)c2c[nH]c3ncc(Cl)cc23)c1F` + Nc1nc(F)nc2c1ncn2[C@@H]1O[C@H](CO)[C@@H](O)[C@@H]1O [fludarabine] (first compound 0.08 µM, partner dose 0.2 µM), the “cleaved PARP positive nuclei fraction” value came out at 109%.
The same measure for `Cc1cc(Nc2cc(N3CCN(C)CC3)nc(/C=C/c3ccccc3)n2)n[nH]1` + CO[C@H]1C[C@@H]2CC[C@@H](C)[C@@](O)(O2)C(=O)C(=O)N2CCCC[C@H]2C(=O)O[C@H]([C@H](C)C[C@@H]2CC[C@@H](OCCO)[C@H](OC)C2)CC(=O)[C@H](C)/C=C(\C)[C@@H](O)[C@@H](OC)C(=O)[C@H](C)C[C@H](C)/C=C/C=C/C=C/1C [everolimus] (first compound 0.04 µM, partner dose 0.02 µM): 44.9%.
The same measure for `CCCS(=O)(=O)Nc1ccc(F)c(C(=O)c2c[nH]c3ncc(Cl)cc23)c1F` + Nc1ncn([C@H]2C[C@H](O)[C@@H](CO)O2)c(=O)n1 [decitabine] (first compound 0.08 µM, partner dose 0.1 µM): 150%.

(Values after the supplement of paper PMC4604168 (melanoma cell lines).)
